Source: patent US20090286738A1, “Gene Regulation” (ST. GEORGE'S ENTERPRISES LIMITED, priority 2005, published 2009)
No constants are given. Whether binding was seen depends on the method and setting. In cells and extracts the contact can be indirect. Some results given as binding are weak or reduced against the parent protein; the word gives no strength.

Amino acid sequences for entries named in this document (tags omitted).
UniProt P28357: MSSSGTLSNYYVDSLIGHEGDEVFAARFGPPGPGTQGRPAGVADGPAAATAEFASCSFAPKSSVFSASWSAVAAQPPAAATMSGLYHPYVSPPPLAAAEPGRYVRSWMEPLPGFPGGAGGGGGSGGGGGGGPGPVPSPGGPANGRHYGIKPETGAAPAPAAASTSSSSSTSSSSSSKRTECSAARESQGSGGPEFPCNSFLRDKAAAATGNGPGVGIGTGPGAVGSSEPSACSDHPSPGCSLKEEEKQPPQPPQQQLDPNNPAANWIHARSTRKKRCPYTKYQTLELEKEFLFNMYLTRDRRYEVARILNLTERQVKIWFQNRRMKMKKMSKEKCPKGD
UniProt P06537: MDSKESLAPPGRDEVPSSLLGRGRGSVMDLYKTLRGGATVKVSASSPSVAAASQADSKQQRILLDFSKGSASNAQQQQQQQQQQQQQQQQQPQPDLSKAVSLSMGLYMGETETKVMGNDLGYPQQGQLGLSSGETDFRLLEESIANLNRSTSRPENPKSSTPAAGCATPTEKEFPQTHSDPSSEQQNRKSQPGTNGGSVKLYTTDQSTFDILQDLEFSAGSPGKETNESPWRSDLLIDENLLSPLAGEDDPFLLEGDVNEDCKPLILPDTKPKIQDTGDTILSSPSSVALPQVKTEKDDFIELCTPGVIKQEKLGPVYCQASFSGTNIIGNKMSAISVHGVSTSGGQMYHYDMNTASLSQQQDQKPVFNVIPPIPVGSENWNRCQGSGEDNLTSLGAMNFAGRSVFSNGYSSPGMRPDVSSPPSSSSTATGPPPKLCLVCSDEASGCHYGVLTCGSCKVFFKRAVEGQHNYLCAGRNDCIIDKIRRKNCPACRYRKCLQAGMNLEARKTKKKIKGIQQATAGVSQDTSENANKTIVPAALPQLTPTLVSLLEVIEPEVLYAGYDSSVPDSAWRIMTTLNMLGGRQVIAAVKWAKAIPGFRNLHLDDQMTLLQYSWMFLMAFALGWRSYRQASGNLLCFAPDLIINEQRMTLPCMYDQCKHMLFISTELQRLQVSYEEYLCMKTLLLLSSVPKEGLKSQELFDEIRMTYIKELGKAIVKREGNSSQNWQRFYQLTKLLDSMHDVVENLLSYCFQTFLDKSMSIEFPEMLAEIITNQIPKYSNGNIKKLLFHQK

What was measured:
[1] = biological target: T1, PBX proteins of murine B16 melanoma cells (mouse (murine B16 melanoma cells)) (UniProt P41778); test: co-immunoprecipitation with anti-PBX antibody from B16 cell lysate, precipitates probed for HOXD9, GR and PBX
T1 sequence (looked up): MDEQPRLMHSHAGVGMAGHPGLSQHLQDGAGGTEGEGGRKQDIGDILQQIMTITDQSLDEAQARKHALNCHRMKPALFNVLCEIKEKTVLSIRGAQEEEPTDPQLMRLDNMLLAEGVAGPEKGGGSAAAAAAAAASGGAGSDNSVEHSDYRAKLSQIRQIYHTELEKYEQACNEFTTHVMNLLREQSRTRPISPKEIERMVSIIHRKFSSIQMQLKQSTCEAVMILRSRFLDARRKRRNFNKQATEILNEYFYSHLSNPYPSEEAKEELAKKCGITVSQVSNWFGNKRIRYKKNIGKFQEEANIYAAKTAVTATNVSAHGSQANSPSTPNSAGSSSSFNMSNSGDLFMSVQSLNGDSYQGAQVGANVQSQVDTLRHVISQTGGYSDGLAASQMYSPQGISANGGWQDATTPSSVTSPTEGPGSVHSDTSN

[2] = biological target: T1, PBX proteins of murine B16 melanoma cells (mouse (murine B16 melanoma cells)); test: co-immunoprecipitation with anti-PBX antibody from B16 cell lysate, Western blot

Row | Substance | binding [1] | binding [2]
1 | HOXD9 (from UniProt P28357 1-339) | binds | –
2 | glucocorticoid receptor (GR) (from UniProt P06537 1-792) | binds | binds
